Reference: the supplement of paper PMC10849652
The list shows a part of the results.

Chains of the proteins cited; added tags and fusions are not shown. Lines headed by an entry give the natural chain unless they say otherwise; changes in a name come on top.
UniProt P35222, whole entry, looked up: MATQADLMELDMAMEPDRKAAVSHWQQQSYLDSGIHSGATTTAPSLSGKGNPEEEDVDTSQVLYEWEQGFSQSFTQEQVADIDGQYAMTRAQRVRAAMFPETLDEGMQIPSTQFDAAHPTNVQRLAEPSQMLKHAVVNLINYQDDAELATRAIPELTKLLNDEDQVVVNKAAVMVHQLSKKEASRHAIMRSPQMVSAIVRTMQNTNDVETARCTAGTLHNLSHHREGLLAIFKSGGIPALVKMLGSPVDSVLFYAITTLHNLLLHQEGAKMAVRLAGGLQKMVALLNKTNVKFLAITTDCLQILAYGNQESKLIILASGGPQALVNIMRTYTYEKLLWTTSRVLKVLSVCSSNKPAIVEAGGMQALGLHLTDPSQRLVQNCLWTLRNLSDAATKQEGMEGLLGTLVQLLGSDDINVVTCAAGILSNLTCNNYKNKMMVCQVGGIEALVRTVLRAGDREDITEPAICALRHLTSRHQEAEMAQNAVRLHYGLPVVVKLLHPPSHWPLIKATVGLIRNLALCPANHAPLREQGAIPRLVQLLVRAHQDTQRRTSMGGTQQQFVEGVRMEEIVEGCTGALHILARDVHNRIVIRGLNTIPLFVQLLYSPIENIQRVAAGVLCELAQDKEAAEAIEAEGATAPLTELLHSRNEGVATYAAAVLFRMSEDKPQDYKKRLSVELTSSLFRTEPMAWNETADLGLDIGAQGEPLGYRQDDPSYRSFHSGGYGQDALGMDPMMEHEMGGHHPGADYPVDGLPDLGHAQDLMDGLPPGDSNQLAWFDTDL
UniProt Q8WUE5: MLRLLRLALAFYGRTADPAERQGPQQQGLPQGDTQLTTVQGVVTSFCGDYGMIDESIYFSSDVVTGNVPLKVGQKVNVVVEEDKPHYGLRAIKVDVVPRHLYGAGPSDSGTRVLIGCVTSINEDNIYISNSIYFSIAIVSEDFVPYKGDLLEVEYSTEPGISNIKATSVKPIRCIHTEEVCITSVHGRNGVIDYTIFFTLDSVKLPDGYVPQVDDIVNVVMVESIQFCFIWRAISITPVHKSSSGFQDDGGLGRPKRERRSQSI
UniProt P04080: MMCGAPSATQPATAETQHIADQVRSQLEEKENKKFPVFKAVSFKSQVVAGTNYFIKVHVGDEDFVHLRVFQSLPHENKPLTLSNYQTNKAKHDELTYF
UniProt P32929, whole entry, looked up: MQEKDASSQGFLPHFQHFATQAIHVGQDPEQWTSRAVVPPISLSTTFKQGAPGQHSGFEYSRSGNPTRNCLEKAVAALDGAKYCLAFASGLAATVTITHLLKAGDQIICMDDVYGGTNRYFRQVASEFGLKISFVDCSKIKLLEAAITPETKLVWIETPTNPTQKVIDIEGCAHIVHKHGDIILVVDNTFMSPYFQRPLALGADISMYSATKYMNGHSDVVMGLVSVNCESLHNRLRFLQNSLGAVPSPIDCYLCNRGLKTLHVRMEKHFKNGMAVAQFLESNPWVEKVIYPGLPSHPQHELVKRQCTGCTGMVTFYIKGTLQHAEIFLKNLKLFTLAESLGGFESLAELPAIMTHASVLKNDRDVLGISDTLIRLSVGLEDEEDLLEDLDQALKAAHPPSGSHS
UniProt Q9UBR2: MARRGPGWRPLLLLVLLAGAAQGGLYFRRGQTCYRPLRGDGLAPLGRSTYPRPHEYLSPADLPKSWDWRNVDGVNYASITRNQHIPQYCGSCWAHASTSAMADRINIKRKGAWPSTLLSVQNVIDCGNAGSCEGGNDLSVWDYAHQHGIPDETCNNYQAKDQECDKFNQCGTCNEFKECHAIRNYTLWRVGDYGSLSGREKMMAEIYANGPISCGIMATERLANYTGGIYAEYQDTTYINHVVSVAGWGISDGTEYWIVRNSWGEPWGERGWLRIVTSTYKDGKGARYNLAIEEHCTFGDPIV
UniProt Q9H0L4: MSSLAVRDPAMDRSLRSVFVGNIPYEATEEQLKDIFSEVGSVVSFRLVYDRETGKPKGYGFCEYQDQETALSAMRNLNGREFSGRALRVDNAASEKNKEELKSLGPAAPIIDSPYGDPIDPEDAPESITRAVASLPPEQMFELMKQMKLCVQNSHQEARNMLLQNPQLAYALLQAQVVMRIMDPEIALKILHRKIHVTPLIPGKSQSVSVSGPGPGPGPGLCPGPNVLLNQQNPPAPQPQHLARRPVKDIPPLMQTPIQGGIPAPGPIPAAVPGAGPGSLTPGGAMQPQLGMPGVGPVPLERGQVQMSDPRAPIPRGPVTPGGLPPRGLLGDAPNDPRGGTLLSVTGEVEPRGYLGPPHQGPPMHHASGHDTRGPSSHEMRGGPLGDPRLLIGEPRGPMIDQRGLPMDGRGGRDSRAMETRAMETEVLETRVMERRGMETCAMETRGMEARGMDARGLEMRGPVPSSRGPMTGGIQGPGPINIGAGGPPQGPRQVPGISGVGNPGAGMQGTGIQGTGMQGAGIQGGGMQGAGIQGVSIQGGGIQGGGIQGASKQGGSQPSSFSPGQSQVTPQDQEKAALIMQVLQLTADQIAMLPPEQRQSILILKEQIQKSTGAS
UniProt Q7Z7A3: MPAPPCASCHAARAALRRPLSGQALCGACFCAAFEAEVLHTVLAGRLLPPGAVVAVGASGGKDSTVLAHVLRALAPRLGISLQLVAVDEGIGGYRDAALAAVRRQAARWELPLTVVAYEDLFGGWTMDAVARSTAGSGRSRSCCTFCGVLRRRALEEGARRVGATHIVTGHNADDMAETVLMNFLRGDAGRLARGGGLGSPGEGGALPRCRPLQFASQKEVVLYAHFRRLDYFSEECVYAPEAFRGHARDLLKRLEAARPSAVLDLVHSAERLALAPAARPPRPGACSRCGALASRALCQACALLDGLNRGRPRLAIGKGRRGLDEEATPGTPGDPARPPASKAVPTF
UniProt P08574: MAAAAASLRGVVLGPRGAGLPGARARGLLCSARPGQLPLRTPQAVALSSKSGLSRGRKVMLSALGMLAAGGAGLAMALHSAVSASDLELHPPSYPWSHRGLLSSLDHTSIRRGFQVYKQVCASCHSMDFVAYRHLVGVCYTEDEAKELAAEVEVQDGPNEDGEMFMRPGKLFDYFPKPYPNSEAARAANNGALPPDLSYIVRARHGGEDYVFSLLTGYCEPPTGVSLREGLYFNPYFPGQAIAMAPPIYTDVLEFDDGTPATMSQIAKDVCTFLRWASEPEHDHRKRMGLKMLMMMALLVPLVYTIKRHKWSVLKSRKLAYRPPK

Key:
Test in all cases: log2 fold change, soluble protein after heating vs DMSO (PISA); higher = thermal stabilisation; K562 lysate, 10 uM; active = over 0.2 and 3.5 SD of the protein, either way, in both replicates (recomputed)
erlotinib = compound: C#Cc1cccc(Nc2ncnc3cc(OCCOC)c(OCCOC)cc23)c1 [erlotinib]
Outline: (§1)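 Values give the log-two fold change in thermal stability against solvent controls, from duplicates. Crude K562 extract at 1 mg/mL protein, made by dounce homogenisation in PBS pH 7.4 with 1 mM MgCl2, was treated with 10 μM compound for 30 min. After 3 min heating across 48°C-58°C, aliquots were pooled, adjusted to 0.5% NP-40 at 4°C and centrifuged at 21,000xg for 90 min. The supernatant was measured by TMTpro 16plex LC-MS/MS with channel sums equalised.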

[1] = compound: C/C(=N\NC(=O)C1=CC(=CC=C1)S(=O)(=O)N2CCOCC2)/C3=C(C=CC(=C3)Cl)O
Outline: as §1

[2] = compound: C1=CC(=CC=C1C2=NC3=C(N2)C=C(C=C3)C(=O)N)OC4=CC=C(C=C4)Cl
Outline: as §1

[3] = compound: C1=CC2=C(C=CC(=C2)/C=C\3/C(=O)NC(=NCC4=CC=CS4)S3)N=C1
Outline: as §1

[4] = compound: C1=CC2=NC=CN=C2C=C1/C=C/3\C(=O)NC(=O)S3
Outline: as §1

[5] = compound: C1=CC=C(C=C1)C2=NC(=C(N2)C3=CC=NC=C3)C4=CC(=C(C=C4)Cl)O
Outline: as §1

[6] = compound: C1=CC=C2C(=C1)C3=NNC4=CC=CC(=C43)C2=O
Outline: as §1

[7] = compound: C1CCN(C1)C(=O)NC2=CC=CC(=C2)NC3=NC=C(C(=N3)NCCC4=CN=CN4)Br
Outline: as §1

[8] = compound: C1CN(CCC1(CC2=CC=C(C=C2)Cl)N)C3=NC=NC4=C3C=CN4
Outline: as §1

IRAK-1-4 Inhibitor I = compound: C1COCCN1CCN2C3=CC=CC=C3N=C2NC(=O)C4=CC(=CC=C4)[N+](=O)[O-] [IRAK-1-4 Inhibitor I]
Outline: as §1

ibrutinib = compound: C=CC(=O)N1CCC[C@@H](n2nc(-c3ccc(Oc4ccccc4)cc3)c3c(N)ncnc32)C1 [ibrutinib]
Outline: as §1

[9] = compound: CC(=O)c1cnc2ccc(-c3cc(Cl)c(O)c(Cl)c3)nc2c1N[C@H]1CC[C@H](CN(C)C)CC1
Outline: as §1

ralimetinib = compound: CC(C)(C)Cn1c(N)nc2ccc(-c3[nH]c(C(C)(C)C)nc3-c3ccc(F)cc3)nc21 [ralimetinib]
Outline: as §1

[10] = compound: CC(C)(O)CC(=O)NCCn1ccc2ncnc(Nc3ccc(Oc4cccc(C(F)(F)F)c4)c(Cl)c3)c21
Outline: as §1

[11] = compound: CC(C)C1=C2N=C(C=C(N2N=C1)NCC3=CC=CC=C3)NCCCCCCN
Outline: as §1

[12] = compound: CC1=C(C(CC(=O)N1)C2=CC=C(C=C2)C(F)(F)F)C(=O)NC3=C(C=C4C(=C3)C=NN4)F
Outline: as §1

[13] = compound: CC1=C(C2=C(C=C1)C(=O)C3=CC=CC=C3N2CCCN)C
Outline: as §1

[14] = compound: CC1=C(C=C(C=C1)NC(=O)C2=CC(=CC=C2)C(C)(C)C#N)NC3=CC4=C(C=C3)N=CN(C4=O)C
Outline: as §1

[15] = compound: CC1=C(C=C(C=C1)NC(=O)C2=CC(=CC=C2)N(C)C)NC(=O)C3=CC=C(C=C3)O
Outline: as §1

[16] = compound: CC1=CC=C(C=C1)SC2=C3C=C(SC3=CN=C2)C(=O)N
Outline: as §1

Measured: log2 fold change

CTNNB1 (UniProt P35222)
inactive: erlotinib -0.078 | [1] 0.063 | [2] 0.027 | [3] 0.085 | [4] 0.095 | [5] -0.016 | [6] 0.049 | [7] -0.065 | [8] -0.027 | IRAK-1-4 Inhibitor I -0.006 | ibrutinib -0.05 | [9] 0.036 | ralimetinib 0.018 | [10] 0.023 | [11] -0.044 | [12] 0.024 | [13] -0.074 | [14] 0.034 | [15] -0.001 | [16] -0.018

CT55 (UniProt Q8WUE5)
inactive: erlotinib 0.082 | [1] -0.018 | [2] -0.007 | [3] 0 | [4] 0.05 | [5] 0.036 | [6] -0.014 | [7] -0.008 | [8] -0.038 | IRAK-1-4 Inhibitor I 0.005 | ibrutinib -0.029 | [9] -0.082 | ralimetinib -0.072 | [10] -0.069 | [11] -0.01 | [12] 0.057 | [13] 0.035 | [14] -0.051 | [15] 0.028 | [16] -0.022

CSTB (UniProt P04080)
inactive: erlotinib -0.024 | [1] 0.054 | [2] -0.016 | [3] 0.018 | [4] 0.004 | [5] -0.028 | [6] 0.031 | [7] -0.015 | [8] 0.031 | IRAK-1-4 Inhibitor I 0.082 | ibrutinib 0.017 | [9] -0.047 | ralimetinib 0.03 | [10] -0.065 | [11] 0.019 | [12] -0.059 | [13] 0.037 | [14] 0.121 | [15] 0.009 | [16] 0.021

CTH (UniProt P32929)
inactive: erlotinib 0.005 | [1] 0.03 | [2] 0 | [3] -0.009 | [4] 0.027 | [5] 0.013 | [6] -0.005 | [7] -0.01 | [8] 0.007 | IRAK-1-4 Inhibitor I 0.034 | ibrutinib 0.028 | [9] -0.015 | ralimetinib 0.015 | [10] -0.009 | [11] 0.012 | [12] -0.026 | [13] 0.011 | [14] 0.033 | [15] -0.02 | [16] -0.026

CTSZ (UniProt Q9UBR2)
inactive: erlotinib -0.018 | [1] 0.008 | [2] 0.032 | [3] -0.008 | [4] 0.011 | [5] 0 | [6] 0.021 | [7] -0.007 | [8] 0.029 | IRAK-1-4 Inhibitor I -0.021 | ibrutinib -0.023 | [9] 0.001 | ralimetinib -0.007 | [10] -0.007 | [11] -0.045 | [12] 0.022 | [13] 0.008 | [14] -0.024 | [15] 0.046 | [16] -0.001

CSTF2T (UniProt Q9H0L4)
inactive: erlotinib 0.018 | [1] 0.007 | [2] 0.011 | [3] -0.006 | [4] -0.015 | [5] -0.002 | [6] -0.012 | [7] 0.045 | [8] 0.014 | IRAK-1-4 Inhibitor I -0.002 | ibrutinib 0.112 | [9] -0.017 | ralimetinib 0.016 | [10] -0.017 | [11] -0.004 | [12] 0.015 | [13] -0.004 | [14] -0.015 | [15] -0.023 | [16] -0.02

Taken from the listing (2 entries):
CT55 (UniProt Q8WUE5)
inactive: erlotinib 0.082 | [1] -0.018 | [2] -0.007 | [3] 0 | [4] 0.05 | [5] 0.036 | [6] -0.014 | [7] -0.008 | [8] -0.038 | IRAK-1-4 Inhibitor I 0.005 | ibrutinib -0.029 | [9] -0.082 | ralimetinib -0.072 | [10] -0.069 | [11] -0.01 | [12] 0.057 | [13] 0.035 | [14] -0.051 | [15] 0.028 | [16] -0.022

CSTB (UniProt P04080)
inactive: erlotinib -0.024 | [1] 0.054 | [2] -0.016 | [3] 0.018 | [4] 0.004 | [5] -0.028 | [6] 0.031 | [7] -0.015 | [8] 0.031 | IRAK-1-4 Inhibitor I 0.082 | ibrutinib 0.017 | [9] -0.047 | ralimetinib 0.03 | [10] -0.065 | [11] 0.019 | [12] -0.059 | [13] 0.037 | [14] 0.121 | [15] 0.009 | [16] 0.021

Additional results

CTU1 (UniProt Q7Z7A3)
inactive: erlotinib 0.024 | [1] -0.09 | [2] 0.044 | [3] 0.002 | [4] 0.005 | [5] 0.011 | [6] -0.06 | [7] -0.025 | [8] 0.037 | IRAK-1-4 Inhibitor I 0.007 | ibrutinib -0.009 | [9] 0.007 | ralimetinib 0.004 | [10] -0.024 | [11] -0.008 | [12] 0.013 | [13] -0.051 | [14] -0.004 | [15] 0.014 | [16] 0.009

CYC1 (UniProt P08574)
inactive: erlotinib 0.001 | [1] 0.026 | [2] -0.04 | [3] 0.012 | [4] -0.014 | [5] 0.029 | [6] 0.116 | [7] 0.053 | [8] -0.056 | IRAK-1-4 Inhibitor I -0.012 | ibrutinib 0.079 | [9] 0.047 | ralimetinib 0.012 | [10] -0.01 | [11] -0.028 | [12] -0.051 | [13] 0.065 | [14] -0.044 | [15] -0.058 | [16] 0.096
